Experimental data: the supplement of paper PMC10849652
Some of the results follow.

Protein sequences, listed by entry. Tags and fused reporters are not part of them. Lines headed by an entry give the natural chain unless they say otherwise; changes in a name come on top.
UniProt Q66K89: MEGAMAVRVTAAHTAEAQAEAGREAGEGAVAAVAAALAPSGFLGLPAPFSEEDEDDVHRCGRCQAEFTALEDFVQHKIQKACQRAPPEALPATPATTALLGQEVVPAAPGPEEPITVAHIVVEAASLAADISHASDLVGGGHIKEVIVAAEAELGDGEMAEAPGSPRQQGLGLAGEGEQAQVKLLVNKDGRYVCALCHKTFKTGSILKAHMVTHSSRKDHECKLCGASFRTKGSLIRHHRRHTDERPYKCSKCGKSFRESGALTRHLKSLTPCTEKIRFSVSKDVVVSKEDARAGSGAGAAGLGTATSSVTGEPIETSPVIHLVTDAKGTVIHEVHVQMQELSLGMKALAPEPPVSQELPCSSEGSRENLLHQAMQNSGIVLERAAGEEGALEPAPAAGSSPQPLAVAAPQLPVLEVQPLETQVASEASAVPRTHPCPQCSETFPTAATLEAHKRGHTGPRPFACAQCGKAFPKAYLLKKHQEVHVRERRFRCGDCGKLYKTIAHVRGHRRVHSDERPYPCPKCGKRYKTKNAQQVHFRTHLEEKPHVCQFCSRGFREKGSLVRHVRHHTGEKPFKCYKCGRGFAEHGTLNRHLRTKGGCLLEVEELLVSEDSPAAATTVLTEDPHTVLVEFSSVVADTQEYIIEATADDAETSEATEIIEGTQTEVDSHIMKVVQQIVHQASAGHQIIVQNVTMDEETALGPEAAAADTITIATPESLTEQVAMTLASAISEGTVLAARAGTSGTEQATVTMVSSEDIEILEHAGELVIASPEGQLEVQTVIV
UniProt P50570: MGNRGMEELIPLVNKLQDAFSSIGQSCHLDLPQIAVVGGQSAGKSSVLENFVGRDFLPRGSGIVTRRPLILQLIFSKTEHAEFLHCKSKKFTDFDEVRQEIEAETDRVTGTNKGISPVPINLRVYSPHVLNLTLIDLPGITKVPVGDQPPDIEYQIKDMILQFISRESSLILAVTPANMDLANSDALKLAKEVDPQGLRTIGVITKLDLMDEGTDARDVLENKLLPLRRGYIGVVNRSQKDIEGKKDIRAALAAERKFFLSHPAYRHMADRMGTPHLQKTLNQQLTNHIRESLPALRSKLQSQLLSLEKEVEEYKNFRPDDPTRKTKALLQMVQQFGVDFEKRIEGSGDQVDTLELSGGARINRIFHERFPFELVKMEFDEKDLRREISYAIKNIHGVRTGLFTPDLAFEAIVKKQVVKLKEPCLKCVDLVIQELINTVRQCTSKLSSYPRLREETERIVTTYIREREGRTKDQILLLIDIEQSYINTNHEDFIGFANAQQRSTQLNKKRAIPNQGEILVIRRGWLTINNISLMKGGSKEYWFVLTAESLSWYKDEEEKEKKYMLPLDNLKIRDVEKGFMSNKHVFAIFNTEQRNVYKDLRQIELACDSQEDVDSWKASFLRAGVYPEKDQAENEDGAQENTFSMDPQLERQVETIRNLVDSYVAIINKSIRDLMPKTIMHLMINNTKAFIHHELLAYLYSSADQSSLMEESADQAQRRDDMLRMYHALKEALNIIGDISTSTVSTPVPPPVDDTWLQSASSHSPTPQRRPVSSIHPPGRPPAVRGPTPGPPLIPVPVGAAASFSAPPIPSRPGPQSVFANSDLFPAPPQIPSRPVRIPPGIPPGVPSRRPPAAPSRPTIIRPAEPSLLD
UniProt O95905: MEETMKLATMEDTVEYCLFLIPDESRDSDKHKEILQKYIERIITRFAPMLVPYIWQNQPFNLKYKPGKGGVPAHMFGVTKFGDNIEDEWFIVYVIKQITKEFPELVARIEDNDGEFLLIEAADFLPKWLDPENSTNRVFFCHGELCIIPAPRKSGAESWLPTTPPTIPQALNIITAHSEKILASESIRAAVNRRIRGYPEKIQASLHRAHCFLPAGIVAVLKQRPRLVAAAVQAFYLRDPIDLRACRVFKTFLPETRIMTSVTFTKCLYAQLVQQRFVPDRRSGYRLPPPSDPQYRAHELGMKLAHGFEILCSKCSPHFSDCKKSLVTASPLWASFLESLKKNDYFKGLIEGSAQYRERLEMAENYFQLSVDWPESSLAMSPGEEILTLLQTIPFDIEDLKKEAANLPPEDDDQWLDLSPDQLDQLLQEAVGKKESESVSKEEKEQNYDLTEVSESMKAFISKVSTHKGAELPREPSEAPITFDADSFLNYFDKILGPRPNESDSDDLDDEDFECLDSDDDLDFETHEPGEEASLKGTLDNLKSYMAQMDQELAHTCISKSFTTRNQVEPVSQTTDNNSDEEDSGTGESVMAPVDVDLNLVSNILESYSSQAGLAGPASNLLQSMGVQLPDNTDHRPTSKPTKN
UniProt O75937: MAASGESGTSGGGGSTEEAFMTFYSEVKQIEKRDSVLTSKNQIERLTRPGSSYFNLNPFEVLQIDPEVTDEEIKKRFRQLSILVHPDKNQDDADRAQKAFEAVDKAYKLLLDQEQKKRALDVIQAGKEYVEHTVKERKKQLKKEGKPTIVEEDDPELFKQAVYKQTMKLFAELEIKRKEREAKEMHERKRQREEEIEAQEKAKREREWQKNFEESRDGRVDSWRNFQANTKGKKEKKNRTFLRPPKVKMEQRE
UniProt Q9Y295: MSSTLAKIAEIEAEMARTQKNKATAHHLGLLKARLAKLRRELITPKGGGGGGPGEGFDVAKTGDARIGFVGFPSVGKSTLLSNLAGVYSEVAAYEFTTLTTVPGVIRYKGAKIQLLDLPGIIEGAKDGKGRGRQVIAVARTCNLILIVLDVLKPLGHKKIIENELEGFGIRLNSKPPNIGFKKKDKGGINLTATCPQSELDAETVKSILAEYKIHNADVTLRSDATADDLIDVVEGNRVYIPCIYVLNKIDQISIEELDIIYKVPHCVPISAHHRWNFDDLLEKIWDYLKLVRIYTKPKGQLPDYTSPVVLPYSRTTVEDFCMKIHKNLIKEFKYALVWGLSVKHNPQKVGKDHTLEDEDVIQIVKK
UniProt Q13011: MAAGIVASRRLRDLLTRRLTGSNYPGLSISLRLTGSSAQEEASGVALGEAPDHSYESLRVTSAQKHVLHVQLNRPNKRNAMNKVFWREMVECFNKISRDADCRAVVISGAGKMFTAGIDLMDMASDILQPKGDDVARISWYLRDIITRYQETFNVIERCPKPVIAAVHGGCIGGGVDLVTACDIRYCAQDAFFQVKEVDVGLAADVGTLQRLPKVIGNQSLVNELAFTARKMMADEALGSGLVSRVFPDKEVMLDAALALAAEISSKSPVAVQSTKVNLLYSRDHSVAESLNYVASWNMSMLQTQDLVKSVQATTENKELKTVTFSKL
UniProt O77932: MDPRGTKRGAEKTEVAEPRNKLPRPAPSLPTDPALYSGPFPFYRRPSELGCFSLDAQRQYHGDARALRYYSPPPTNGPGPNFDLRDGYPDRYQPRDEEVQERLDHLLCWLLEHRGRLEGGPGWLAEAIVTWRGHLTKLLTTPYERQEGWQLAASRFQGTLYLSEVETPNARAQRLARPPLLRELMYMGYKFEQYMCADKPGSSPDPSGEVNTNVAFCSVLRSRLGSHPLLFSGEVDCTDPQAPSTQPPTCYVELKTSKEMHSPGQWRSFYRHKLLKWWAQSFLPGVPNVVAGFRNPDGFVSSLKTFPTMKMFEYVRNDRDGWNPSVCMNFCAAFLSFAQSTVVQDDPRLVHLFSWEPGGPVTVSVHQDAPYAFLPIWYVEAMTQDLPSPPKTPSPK
UniProt Q99848: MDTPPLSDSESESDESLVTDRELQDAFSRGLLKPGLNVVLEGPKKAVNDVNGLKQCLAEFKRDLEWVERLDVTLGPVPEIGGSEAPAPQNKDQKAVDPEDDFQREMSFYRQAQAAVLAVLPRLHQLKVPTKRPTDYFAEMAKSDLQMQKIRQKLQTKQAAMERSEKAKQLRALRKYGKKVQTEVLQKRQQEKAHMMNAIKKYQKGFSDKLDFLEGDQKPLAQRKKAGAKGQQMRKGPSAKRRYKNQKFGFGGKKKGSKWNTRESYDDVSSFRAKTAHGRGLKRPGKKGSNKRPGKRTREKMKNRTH
UniProt O43598: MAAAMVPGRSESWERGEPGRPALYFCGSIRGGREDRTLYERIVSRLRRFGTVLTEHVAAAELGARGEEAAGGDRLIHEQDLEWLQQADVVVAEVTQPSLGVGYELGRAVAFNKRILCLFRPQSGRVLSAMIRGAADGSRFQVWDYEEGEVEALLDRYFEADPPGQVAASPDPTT
UniProt Q6P3W2: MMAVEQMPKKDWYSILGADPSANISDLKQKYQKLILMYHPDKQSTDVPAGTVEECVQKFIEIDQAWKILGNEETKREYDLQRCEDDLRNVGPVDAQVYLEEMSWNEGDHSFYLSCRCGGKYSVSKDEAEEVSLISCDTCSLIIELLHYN
UniProt O75923: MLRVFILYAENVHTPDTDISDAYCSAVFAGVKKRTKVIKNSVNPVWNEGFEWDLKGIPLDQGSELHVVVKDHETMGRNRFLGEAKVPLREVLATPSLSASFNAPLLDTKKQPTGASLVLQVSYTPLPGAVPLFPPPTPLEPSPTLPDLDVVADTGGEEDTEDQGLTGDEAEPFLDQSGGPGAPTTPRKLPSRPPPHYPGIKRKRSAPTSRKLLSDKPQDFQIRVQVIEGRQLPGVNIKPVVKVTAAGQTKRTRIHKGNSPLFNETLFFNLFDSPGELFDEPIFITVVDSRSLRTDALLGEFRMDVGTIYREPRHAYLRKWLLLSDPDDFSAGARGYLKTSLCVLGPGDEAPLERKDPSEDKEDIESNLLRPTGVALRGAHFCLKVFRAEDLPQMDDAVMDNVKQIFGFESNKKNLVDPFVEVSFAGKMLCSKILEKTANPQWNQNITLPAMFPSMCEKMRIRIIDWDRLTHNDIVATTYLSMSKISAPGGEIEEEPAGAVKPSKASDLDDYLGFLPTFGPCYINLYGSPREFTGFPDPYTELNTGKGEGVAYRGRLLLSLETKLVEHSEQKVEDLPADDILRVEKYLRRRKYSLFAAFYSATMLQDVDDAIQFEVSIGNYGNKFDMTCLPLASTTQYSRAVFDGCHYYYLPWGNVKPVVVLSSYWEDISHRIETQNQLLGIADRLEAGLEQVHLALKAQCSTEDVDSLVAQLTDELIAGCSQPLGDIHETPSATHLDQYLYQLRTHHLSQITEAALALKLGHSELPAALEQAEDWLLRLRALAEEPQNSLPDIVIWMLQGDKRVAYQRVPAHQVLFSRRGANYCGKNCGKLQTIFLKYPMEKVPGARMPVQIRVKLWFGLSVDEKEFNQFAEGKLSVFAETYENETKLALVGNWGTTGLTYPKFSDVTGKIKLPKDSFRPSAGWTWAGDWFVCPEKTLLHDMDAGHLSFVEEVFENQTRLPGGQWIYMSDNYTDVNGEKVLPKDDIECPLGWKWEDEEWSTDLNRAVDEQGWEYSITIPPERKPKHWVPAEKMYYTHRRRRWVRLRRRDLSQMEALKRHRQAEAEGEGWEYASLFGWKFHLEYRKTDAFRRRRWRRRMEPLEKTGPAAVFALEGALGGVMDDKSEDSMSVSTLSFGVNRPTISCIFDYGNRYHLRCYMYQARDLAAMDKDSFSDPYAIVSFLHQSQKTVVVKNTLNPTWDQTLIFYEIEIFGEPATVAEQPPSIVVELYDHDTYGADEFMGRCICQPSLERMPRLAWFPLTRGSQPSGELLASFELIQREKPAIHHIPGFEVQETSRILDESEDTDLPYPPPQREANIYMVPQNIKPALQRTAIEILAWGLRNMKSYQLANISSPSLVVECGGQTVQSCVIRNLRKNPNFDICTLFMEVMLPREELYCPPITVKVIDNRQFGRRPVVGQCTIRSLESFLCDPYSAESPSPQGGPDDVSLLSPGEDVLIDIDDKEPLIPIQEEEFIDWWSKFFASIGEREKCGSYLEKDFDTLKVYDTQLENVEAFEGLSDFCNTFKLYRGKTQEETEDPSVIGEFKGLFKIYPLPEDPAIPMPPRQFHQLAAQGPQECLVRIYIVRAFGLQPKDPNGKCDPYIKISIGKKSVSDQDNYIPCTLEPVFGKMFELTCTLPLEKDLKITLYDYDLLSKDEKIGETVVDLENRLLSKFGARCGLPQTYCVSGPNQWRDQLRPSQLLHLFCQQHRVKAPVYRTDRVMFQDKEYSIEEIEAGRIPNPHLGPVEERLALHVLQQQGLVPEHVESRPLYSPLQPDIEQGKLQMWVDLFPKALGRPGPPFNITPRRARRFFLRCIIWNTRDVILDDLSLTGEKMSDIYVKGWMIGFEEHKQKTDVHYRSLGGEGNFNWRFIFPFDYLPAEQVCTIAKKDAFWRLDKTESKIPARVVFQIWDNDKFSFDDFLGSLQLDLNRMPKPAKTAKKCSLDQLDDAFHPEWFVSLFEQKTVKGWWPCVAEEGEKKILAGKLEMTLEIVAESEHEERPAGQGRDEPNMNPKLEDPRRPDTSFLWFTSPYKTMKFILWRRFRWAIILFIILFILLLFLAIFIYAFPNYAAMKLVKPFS

Experiments:
Assay in all cases: log2 fold change, soluble protein after heating vs DMSO (PISA); higher = thermal stabilisation; K562 cells, 10 uM, 30 min; active = over 0.2 and 3.5 SD of the protein, either way, in both replicates (recomputed)
[1] = compound: COC1=CC=C(C=C1)CN2C=CC3=C2C=C(C=C3)C(=O)NO
How it was run: (§1)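 For each measurement, 10 μM compound was applied for 30 min to K562 cells at 2×10^6 cells/mL. Aliquots were heated for 3 min across 48°C-58°C, pooled, and extracted in PBS with 0.5% NP-40 at 4°C; the supernatant after 21,000xg for 90 min was soluble protein. This was quantified by TMTpro 16plex LC-MS/MS with channel sums equalised, and thermal stability was reported relative to control samples from duplicates, on a log2 fold-change scale.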

filanesib = compound: CON(C)C(=O)N1N=C(c2cc(F)ccc2F)S[C@@]1(CCCN)c1ccccc1 [filanesib]
How it was run: as §1

zotarolimus = compound: CO[C@H]1C[C@@H]2CC[C@@H](C)[C@@](O)(O2)C(=O)C(=O)N2CCCC[C@H]2C(=O)O[C@H]([C@H](C)C[C@@H]2CC[C@H](n3cnnn3)[C@H](OC)C2)CC(=O)[C@H](C)/C=C(\C)[C@@H](O)[C@@H](OC)C(=O)[C@H](C)C[C@H](C)/C=C/C=C/C=C/1C [zotarolimus]
How it was run: as §1

idasanutlin = compound: COc1cc(C(=O)O)ccc1NC(=O)[C@@H]1N[C@@H](CC(C)(C)C)[C@](C#N)(c2ccc(Cl)cc2F)[C@H]1c1cccc(Cl)c1F [idasanutlin]
How it was run: as §1

alisertib = compound: COc1cc(Nc2ncc3c(n2)-c2ccc(Cl)cc2C(c2c(F)cccc2OC)=NC3)ccc1C(=O)O [alisertib]
How it was run: as §1

gefitinib = compound: COc1cc2ncnc(Nc3ccc(F)c(Cl)c3)c2cc1OCCCN1CCOCC1 [gefitinib]
How it was run: as §1

[2] = compound: COc1cccc2cc(-c3nc([C@H]4CC[C@H](C(=O)O)CC4)n4ncnc(N)c34)[nH]c12
How it was run: as §1

pictilisib = compound: CS(=O)(=O)N1CCN(Cc2cc3nc(-c4cccc5[nH]ncc45)nc(N4CCOCC4)c3s2)CC1 [pictilisib]
How it was run: as §1

[3] = compound: COc1cc2nc(-c3cc(F)ccc3O)nc(N[C@@H]3CNC[C@H]3C(C)(C)O)c2cc1OC
How it was run: as §1

lapatinib = compound: CS(=O)(=O)CCNCc1ccc(-c2ccc3ncnc(Nc4ccc(OCc5cccc(F)c5)c(Cl)c4)c3c2)o1 [lapatinib]
How it was run: as §1

Measured: log2 fold change

DOCK8 (UniProt Q8NF50)
inactive: [1] 0.475 | filanesib 0.464 | zotarolimus 0.083 | idasanutlin 0.217 | alisertib -0.029 | gefitinib 0.006 | [2] -0.428 | pictilisib -0.337

E4F1 (UniProt Q66K89)
inactive: [1] -0.24 | filanesib 0.331 | zotarolimus 0.685 | idasanutlin 0.082 | alisertib 0.449 | [3] -0.123 | [2] 0.225 | lapatinib 0.094 | pictilisib -0.194

DOCK11, A0A0J9YW64
inactive: [1] -0.156 | filanesib -0.08 | alisertib -0.012 | [2] -0.018

DNM2 isoform 4 (UniProt P50570)
inactive: [1] 0.455 | filanesib 0.021 | zotarolimus 0.273 | alisertib 0.316 | gefitinib -0.013 | [2] -0.272 | pictilisib -0.123

ECD isoform 3 (UniProt O95905)
inactive: [1] -0.032 | filanesib 0.007 | zotarolimus -0.121 | alisertib 0.025 | [3] 0.138 | gefitinib 0.045 | [2] -0.06 | lapatinib -0.007 | pictilisib 0.003

DNAJC8 (UniProt O75937)
inactive: [1] 0.019 | filanesib -0.018 | zotarolimus 0.039 | idasanutlin -0.024 | alisertib 0.009 | [3] 0.054 | gefitinib -0.013 | [2] -0.007 | lapatinib -0.058 | pictilisib 0.009

DRG1 (UniProt Q9Y295)
inactive: [1] -0.03 | filanesib 0.067 | zotarolimus -0.002 | idasanutlin 0.009 | alisertib -0.053 | [3] 0.042 | gefitinib -0.024 | [2] -0.051 | lapatinib 0.005 | pictilisib 0.002

ECH1 (UniProt Q13011)
inactive: [1] -0.008 | filanesib -0.215 | zotarolimus -0.05 | idasanutlin -0.134 | alisertib 0.033 | [3] 0.045 | gefitinib -0.032 | [2] 0.02 | lapatinib -0.011 | pictilisib 0.033

DXO (UniProt O77932)
inactive: [1] 0.036 | zotarolimus -0.056 | idasanutlin 0.007 | alisertib 0.046 | gefitinib -0.016 | [2] 0.015 | pictilisib 0.042

EBNA1BP2 (UniProt Q99848)
inactive: [1] -0.054 | filanesib 0.686 | zotarolimus 0.069 | idasanutlin 0.283 | alisertib -0.172 | [3] -0.095 | gefitinib -0.01 | [2] -0.216 | lapatinib 0.153 | pictilisib -0.069

DNPH1 (UniProt O43598)
inactive: [1] 0.066 | filanesib 0.024 | zotarolimus -0.007 | idasanutlin 0.053 | alisertib -0.063 | [3] -0.053 | gefitinib 0.015 | [2] 0.04 | lapatinib -0.008 | pictilisib -0.015

DNAJC24 (UniProt Q6P3W2)
inactive: [1] -0.06 | filanesib 0.199 | zotarolimus 0.004 | alisertib 0.045 | [3] -0.111 | gefitinib 0.018 | [2] -0.112 | lapatinib 0.034

DUSP9 (UniProt Q99956)
inactive: [1] -0.036 | filanesib 0.017 | gefitinib 0.093

DNPEP (UniProt B9ZVU2)
inactive: [1] 0.145 | filanesib -0.062 | zotarolimus 0.183 | idasanutlin -0.039 | alisertib -0.132 | [3] -0.124 | [2] 0.084 | lapatinib 0.048 | pictilisib -0.152

DYSF isoform 13 (UniProt O75923)
inactive: [1] 0.033 | filanesib 0.015 | idasanutlin 0.049 | alisertib -0.268 | gefitinib -0.193 | [2] 0.056 | pictilisib 0.052

DNAJC7 (UniProt Q99615)
inactive: [1] 0.037 | filanesib -0.025 | zotarolimus 0.07 | idasanutlin -0.043 | alisertib -0.044 | [3] -0.031 | gefitinib 0.068 | [2] -0.031 | lapatinib 0 | pictilisib 0.014
